# Hit rate of the full screen: of about 140,000 compounds, about 4,300 (3.1%) were called active. This list was built around the results that the source calls inconclusive (neither active nor inactive); the mix of calls is not that of the screen.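 The calls were made as follows: active = readout at or below -70, meaning at least 70% loss of cells showing the perinucleolar compartment, a nuclear body marking cancer cells; inconclusive = readout between -30 and a set limit; inactive = the rest.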
# Assay: High Content Assay for Compounds that inhibit the Assembly of the Perinucleolar Compartment;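 also: plate controls were DMSO wells for no effect and camptothecin positive control wells for full effect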
# Settings: PC3M PTB-GFP, PNC prevalence imaging, 16 h; at 10 µM; hits give low values
# Method in brief: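 PC3M cells stably expressing PTB-GFP, 750–1000 cells/well, treated 16 h at 37 °C with compound (23 nl of library stock), in duplicate. After paraformaldehyde fixation and Hoechst stain, imaged at 20x; PNC prevalence scored by image analysis.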
row,SMILES,"activity change (PNC), negative = inhibition"
1,COc1ccc(OC)c(NC(=O)COC(=O)c2c3c(nc4ccccc24)CCCC3)c1,inconclusive: -39%
2,CN1CCN(S(=O)(=O)c2ccc3c(c2)OCCO3)CC1,inconclusive: -57.7%
3,COC(=O)c1c(NC(=O)CSc2n[nH]c(N)n2)sc(C)c1C,inconclusive: -41.8%
4,O=C(/N=C1\NC(=O)C(F)(C(F)(F)F)S1)NC1CCCCC1 (configuration not stated),inactive: 16.7%
5,CC(C)C(=O)Nc1cccc(NC(=S)NC(=O)c2ccccc2Cl)c1,inactive: 39%
6,CC1(C)C(=O)C2(C(=O)NCc3ccccc3)CCC1C2 (configuration not stated),inconclusive: -62.4%
7,COc1ccc(N2CCN(c3cc(C)c4ccc(O)cc4n3)CC2)cc1,inconclusive: -32.8%
8,O=C(COc1cccnc1[N+](=O)[O-])N1CCN(S(=O)(=O)c2ccc3ccccc3c2)CC1,inconclusive: -63.6%
9,Cc1ccc(NC(=S)NCc2ccccc2Cl)c(C)c1,inactive: 22.9%
10,OCCCn1c(-c2ccccc2)nc(=S)c2c1CCCC2,inactive: 2.02%
11,COc1ccc(Cn2c(O)c(C=Nc3ccc(O)cc3)c3ccccc3c2=O)cc1,inactive: 15.4%
12,S=c1[nH]nc(Cc2c[nH]c3ccccc23)o1,inconclusive: -72.3%
13,O=C(c1cccc(F)c1)N1CCN(C(=O)c2cc3ncc(Br)cn3n2)CC1,inactive: 21.8%
14,CCn1nc(C(=O)OCC(=O)Nc2ncc(Cl)c(C)c2Cl)c2ccccc2c1=O,inconclusive: -38%
15,CCOC(=O)C1CCC2(CC1)C(C#N)=C(N)Oc1n[nH]c(C)c12 (configuration not stated),inconclusive: -38.4%
16,CN(CC(=O)N1CCN(c2ccccc2F)CC1)S(=O)(=O)c1cnc[nH]1,inconclusive: -66.6%
17,Nc1ccc(-c2ccc(N)cc2C(F)(F)F)c(C(F)(F)F)c1,inconclusive: -64%
18,O=C(c1ccco1)N1CCN(C(=O)N2c3ccccc3Sc3ccccc32)CC1,active: -89.2%
19,CCCc1ccc(OCC(O)CN2CCN(c3ccccc3)CC2)cc1 (configuration not stated),inconclusive: -51.6%
20,C=CCn1c(SCC(=O)Nc2ccc3c(c2)OCO3)nnc1-c1ccccc1O,inactive: 5.86%
21,Cn1cnnc1SCCC(=O)Nc1ccc(Cl)cc1,active: -113%
22,CCC(=O)NC(C)C(c1cccs1)N1CCN(Cc2ccccc2)CC1 (configuration not stated),inconclusive: -40.3%
23,COc1ccc(-c2cc(=O)n(-c3ccc([N+](=O)[O-])cc3)[nH]2)cc1,inactive: 7.69%

row,SMILES,"activity change (PNC), negative = inhibition"
1,CCOC(=O)c1c(C)[nH]c(C(=O)OCC(=O)Nc2cc(C)c(Cl)cc2OC)c1C,inconclusive: -30.6%
2,O=C(Nc1ccc2nc(-c3ccco3)c(-c3ccco3)nc2c1)N1CCN(c2ccccn2)CC1,inconclusive: -71.4%
3,S=C(Nc1ccc(Br)cc1)N1CCN(C2CCCCC2)CC1,inconclusive: -40.1%
4,Nc1c(C(=O)NCCC2=CCCCC2)sc2ccc(S(=O)(=O)N3CCCCC3)cc12,inactive: 26.5%
5,COc1c(C)cccc1C(=O)Nc1ccc(CN2CCOCC2)cc1,inconclusive: -33.7%
6,CC(=O)Nc1ccc(NC(=O)Cn2c(CC(=O)N3CCCC3)nc3ccccc32)cc1,inactive: 18.1%
7,CCCc1nc2oc(C(=O)c3ccccc3)c(N)c2c2c1COC(C)(C)C2,inconclusive: -61.4%
8,CCN(CC)C(=O)CSc1nnc(-c2cnccn2)n1-c1ccc(C)cc1,inconclusive: -30.1%
9,COc1cc(C(=O)NNC2=CC(=O)CC(C)(C)C2)cc(OC)c1OC,inconclusive: -67.9%
10,C=CCNC(=O)c1sc(SC)cc1-c1ccc(Cl)cc1,inconclusive: -33.7%
11,CCC(CC)NC(=O)Cc1ccccc1OC,inconclusive: -40.9%
12,CSc1nnc(-c2sc3cc(C(F)(F)F)cnc3c2-c2ccccn2)n1C,inconclusive: -35.3%
13,O=C(CSc1ncnc2ccccc12)c1ccc2c(c1)OCCO2,inconclusive: -70.4%
14,COC(=O)c1ccccc1SC1CC(=O)N(c2cccc(C)c2)C1=O (configuration not stated),inconclusive: -59.2%
15,COc1ccc([N+](=O)[O-])cc1N(CC(O)Cn1nnc2ccccc21)S(=O)(=O)c1ccc(C)cc1 (configuration not stated),inconclusive: -41.4%
16,COc1cccc(C2C(C(N)=O)=C(C)Nc3nc(-c4ccccc4Cl)nn32)c1 (configuration not stated),inconclusive: -32.1%
17,COc1cc(OC)cc(N(C(=O)C2COc3ccccc3O2)C(C(=O)NC2CCCCC2)c2ccc(O)cc2)c1 (configuration not stated),inconclusive: -59.3%
18,COc1ccc(N2C(=O)C3CCCN3C2c2ccc(C)o2)cc1Cl (configuration not stated),inconclusive: -31.2%
19,Cc1ccccc1NN1C(=O)C=CC1=O,inconclusive: -70.6%
20,CC(C)(C)OC(=O)N1CCC(C(=O)N2CCOCC2)CC1,inactive: 26.9%
21,COc1ccccc1N1CCN(C(=O)C2CC=CCC2C(=O)O)CC1 (configuration not stated),inconclusive: -39.1%
22,Cc1nc2ccccc2n1CCCOc1ccccc1,active: -105%
23,Cn1c2ccc(F)cc2c2ncn(CCCN(CCO)CCO)c(=O)c21,inconclusive: -38.1%

# As a working copy, three of the compounds above.
row,SMILES,"activity change (PNC), negative = inhibition"
11,COc1ccc(Cn2c(O)c(C=Nc3ccc(O)cc3)c3ccccc3c2=O)cc1,inactive: 15.4%
12,S=c1[nH]nc(Cc2c[nH]c3ccccc23)o1,inconclusive: -72.3%
13,O=C(c1cccc(F)c1)N1CCN(C(=O)c2cc3ncc(Br)cn3n2)CC1,inactive: 21.8%

# More structures

row,SMILES,"activity change (PNC), negative = inhibition"
1,CC(C)CC(=O)NC1(C(F)(F)F)C(=O)N(CC(C)C)C2=C1C(=O)CC(C)(C)C2 (configuration not stated),inactive: -27.9%
2,O=C(CN1CCN(Cc2ccccc2Cl)CC1)N/N=C/C=C\c1ccccc1[N+](=O)[O-],inconclusive: -37.3%
3,C=C(C)Cn1c(C2CC(=O)N(Cc3ccccc3)C2)nc2ccccc21 (configuration not stated),inconclusive: -66%
4,CCc1ccc(NC(=O)c2cc(C)on2)cc1,inactive: -22.2%
5,COc1ccc(CN2C(=O)CS(=O)CC2=O)cc1OC,inactive: -25.6%
6,COc1ccccc1NC(=O)COc1ccc(/C=N/NS(=O)(=O)c2ccc(C)cc2)cc1,inconclusive: -38.8%
7,COc1ccc(NC(=S)Nc2ccc3nsnc3c2)cc1,inactive: 13.7%
8,O=C(Nc1ccccc1C(=O)NC(Cc1ccccc1)C(=O)NC1CCCCC1)c1ccccc1 (configuration not stated),inactive: 68.3%
9,CCC(CC)c1nnc(NC(=O)c2ccc(N3CCCCC3)c([N+](=O)[O-])c2)s1,inconclusive: -47.1%
10,COc1ccc(C2NC(=O)c3n[nH]c(C)c32)c(OC)c1 (configuration not stated),inconclusive: -41.4%
11,c1ccc(N2CCN(Cc3ccnc4ccccc34)CC2)cc1,inactive: -28.4%
12,O=C(CSc1nc2ccccc2s1)N1CCCCC1,inconclusive: -34.2%
13,CCOC(=O)/C(C#N)=C/C1=C(N2CCCC2)CC(C)(CC)OC1 (configuration not stated),inactive: 9.92%
14,CCS(=O)(=O)NCc1ccc2c(c1)cc(C)n2C,inconclusive: -34.1%
15,COc1ccc(C(=O)Nc2ccc(SC(F)F)cc2)cc1,inconclusive: -34.6%
16,CC1=C(C(=O)Nc2ccccc2)C(c2ccncc2)C(C#N)=C(SCC(=O)NC(C)C)N1 (configuration not stated),inconclusive: -58.7%
17,CCCSc1n[nH]c(NC(C)=O)n1,inconclusive: -61.5%
18,CC1CCN(S(=O)(=O)c2ccc3c(c2)CCN3C(=O)CCC(=O)O)CC1,inactive: 19.1%
19,CC1(C)CC(=O)C2=C(C1)Nc1cc3c(cc1C2c1ccc(F)cc1)OCO3 (configuration not stated),inactive: 30.7%
20,O=C(/C=C/N1CCOCC1)c1coc2ccccc12,inconclusive: -42.2%
21,c1ccc(CSc2nnc(-c3cccs3)o2)cc1,inactive: 18%
22,Cc1cccc(NC(=O)CCSc2nncn2C)c1,inactive: 25.6%
23,COc1cccc(-n2nc(C(C)=O)c(C#N)c2-c2ccco2)c1,inactive: 19.2%

row,SMILES,"activity change (PNC), negative = inhibition"
1,Cc1nn(-c2ccccc2)c(C)c1/C=N/NC(=O)c1cc(-c2cccs2)[nH]n1,active: -115%
2,Cc1ccc(Cn2c(SCC(=O)Nc3cc(C)on3)nc3ccccc3c2=O)cc1,inconclusive: -65.3%
3,CCOC(=O)N/N=C/c1ccc(OCCSc2ccc(Cl)cc2)c(OC)c1,inactive: -4.02%
4,CCN(CC)C(=O)CSc1nnc(CCN)o1,active: -81.7%
5,CC12CCC(c3c(C(=O)O)nn(-c4ccccc4)c31)C2(C)C (configuration not stated),active: -127%
6,O=C(Nc1cccc(S(=O)(=O)N2CCOCC2)c1)c1ccco1,inconclusive: -38.8%
7,CCOCCCNC(=O)C1CCCN(S(=O)(=O)CC)C1 (configuration not stated),inconclusive: -31%
8,CCn1c(=O)cc(SCC(=O)Nc2ccc3c(c2)OCO3)c2ccccc21,inconclusive: -31.2%
9,CCc1cccc(C)c1NC(=O)c1cccc(N(C)C)c1,inactive: -26.4%
10,CN1CCN(CC(O)c2ccccc2)CC1 (configuration not stated),inconclusive: -44.4%
11,Cc1cc(-c2ccco2)n2c(nc3ccccc32)c1C#N,inactive: 61.3%
12,O=C(CSc1cn(CCNC(=O)c2cccs2)c2ccccc12)NCc1ccccc1,inconclusive: -32.8%
13,CCO/N=C(/C)c1c(O)cc(-c2ccccc2)n(-c2ccccc2)c1=O,inactive: 36.7%
14,CC(c1nc2ccccc2c(=O)[nH]1)N1CCN(C)CC1 (configuration not stated),inconclusive: -35.4%
15,COc1ccc(S(=O)(=O)NCCSCc2ccccc2C)cc1Br,inactive: 5.76%
16,Cc1ccc(C2C(C#N)=C(N)Oc3c2c(=O)n(C)c(=O)n3C)cc1 (configuration not stated),inactive: 14.1%
17,Cc1ccc(NC(=O)N2CCCN(Cc3ccc(F)cc3)C2)cc1C,inconclusive: -55.7%
18,CC(=O)c1cccc(OCC(=O)c2cc(C)n(-c3cc(C)on3)c2C)c1,inconclusive: -32.9%
19,Cc1cccc(NC(=O)CSc2nnc(-c3ccco3)o2)c1C,inconclusive: -35.9%
20,Nc1nncn1C(=O)CCCOc1ccc(Cl)cc1Cl,inconclusive: -37.7%
21,CCCC(=O)c1c[nH]c(C(=O)NCCc2ccccn2)c1,inactive: -3.93%
22,CN(Cc1ccccc1)c1nc(N)c([N+](=O)[O-])c(Nc2cccc(F)c2)n1,inactive: 15.9%
23,Nc1nc(Cl)nc(N(c2ccccc2)c2ccccc2)n1,inconclusive: -39.9%

# Source: PubChem BioAssay AID2417 (National Center for Advancing Translational Sciences (NCATS), 2010)
